Results: the supplement of paper PMC11006884
Only a part is listed here, and it is no random draw.

Compound: COC(=O)C#Cc1ccccc1 [methyl 3-phenylpropiolate]
Experiment: log2 ratio of iodoacetamide-alkyne labeling of the cysteine site, DMSO over compound (competition); higher = stronger covalent engagement of the cysteine by the compound, active = 1 or more
Details: 500 µM; treatment time 1 h; system: HEK293T cell lysate
Summary of the method: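 Three replicates, each with duplicate channels, were prepared from HEK293T lysate (2 mg/mL) treated with vehicle or electrophile at 500 µM for 1 h at ambient temperature. Iodoacetamide alkyne was then applied for 1 h, and samples were clicked to sCIP-TMT reagents, pooled, trypsin-digested overnight at 37 °C, enriched on streptavidin, acid-eluted and analysed on Orbitrap Eclipse LC-MS/MS with FAIMS, with FragPipe quantification. The log2 competition ratio per cysteine is the mean control-channel divided by the mean compound-channel reporter intensity. Cysteines quantified in only one replicate were left out.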

Target: CNBP C171 (UniProt P62633)
- log2 ratio of iodoacetamide-alkyne labeling: inactive: -0.0616

Target: CLTC C491 (UniProt Q00610)
- log2 ratio of iodoacetamide-alkyne labeling: inactive: 0.213

Target: RPL10A C74 (UniProt P62906)
- log2 ratio of iodoacetamide-alkyne labeling: inactive: -0.0195

Target: RPS27A C145 (UniProt P62979)
- log2 ratio of iodoacetamide-alkyne labeling: inactive: 0.532

Target: UniProt P78368_C54
- log2 ratio of iodoacetamide-alkyne labeling: inactive: 0.0685

Target: TFAM C246 (UniProt Q00059)
- log2 ratio of iodoacetamide-alkyne labeling: inactive: 0.0252

Target: UniProt P62330_C155
- log2 ratio of iodoacetamide-alkyne labeling: inactive: 0.452

Target: MRPS11 C186 (UniProt P82912)
- log2 ratio of iodoacetamide-alkyne labeling: inactive: 0.527

Target: CNBP C54 (UniProt P62633)
- log2 ratio of iodoacetamide-alkyne labeling: inactive: -0.0171

Target: AMPD2 C107 (UniProt Q01433)
- log2 ratio of iodoacetamide-alkyne labeling: inactive: 0.857

Target: PFKP C641 (UniProt Q01813)
- log2 ratio of iodoacetamide-alkyne labeling: inactive: 0.259

Target: HNRNPU C562 (UniProt Q00839)
- log2 ratio of iodoacetamide-alkyne labeling: inactive: 0.691

Target: SPTBN1 C604 (UniProt Q01082)
- log2 ratio of iodoacetamide-alkyne labeling: inactive: 0.364

Target: RPL10A C66 (UniProt P62906)
- log2 ratio of iodoacetamide-alkyne labeling: inactive: -0.0142

Target: SKP1 C160 (UniProt P63208)
- log2 ratio of iodoacetamide-alkyne labeling: inactive: 0.0891

Target: FKBP1A C23 (UniProt P62942)
- log2 ratio of iodoacetamide-alkyne labeling: inactive: 0.0261

Target: PLCB3 C892 (UniProt Q01970)
- log2 ratio of iodoacetamide-alkyne labeling: inactive: 0.797

Target: UniProt P62701_C41
- log2 ratio of iodoacetamide-alkyne labeling: inactive: -0.0444

Target: UniProt Q02040_C17
- log2 ratio of iodoacetamide-alkyne labeling: inactive: 0.249

Target: UniProt P62829_C28
- log2 ratio of iodoacetamide-alkyne labeling: inactive: 0.232

Target: UniProt P62330_C90
- log2 ratio of iodoacetamide-alkyne labeling: inactive: 0.0463

Target: UniProt P62826_C112
- log2 ratio of iodoacetamide-alkyne labeling: inactive: -0.0254

Target: UniProt P62854_C74
- log2 ratio of iodoacetamide-alkyne labeling: inactive: 0.434

Target: CCT2 C395 (UniProt P78371)
- log2 ratio of iodoacetamide-alkyne labeling: inactive: -0.0576

Target: PFKP C123 (UniProt Q01813)
- log2 ratio of iodoacetamide-alkyne labeling: inactive: -0.112

Target: UniProt P62829_C125
- log2 ratio of iodoacetamide-alkyne labeling: inactive: 0.485

Target: UniProt P78527_C4061
- log2 ratio of iodoacetamide-alkyne labeling: inactive: 0.465

Target: OGDH C802 (UniProt Q02218)
- log2 ratio of iodoacetamide-alkyne labeling: inactive: -0.0839

Target: CLTC C870 (UniProt Q00610)
- log2 ratio of iodoacetamide-alkyne labeling: inactive: 0.621

Target: UniProt P62316_C63
- log2 ratio of iodoacetamide-alkyne labeling: inactive: 0.416

Target: UniProt P63241_C22
- log2 ratio of iodoacetamide-alkyne labeling: inactive: -0.0755

Target: MRPS6 C105 (UniProt P82932)
- log2 ratio of iodoacetamide-alkyne labeling: inactive: 0.438

Target: MRPS9 C353 (UniProt P82933)
- log2 ratio of iodoacetamide-alkyne labeling: inactive: -0.032

Target: UniProt P78527_C3347
- log2 ratio of iodoacetamide-alkyne labeling: inactive: 0.495

Target: UniProt Q00341_C683
- log2 ratio of iodoacetamide-alkyne labeling: inactive: -0.0455

Target: UniProt P62913_C72
- log2 ratio of iodoacetamide-alkyne labeling: inactive: -0.165

Target: GSTO1 C32 (UniProt P78417)
- log2 ratio of iodoacetamide-alkyne labeling: active: 2.51

Target: UniProt P62304_C46
- log2 ratio of iodoacetamide-alkyne labeling: inactive: -0.112

Target: MRPS5 C377 (UniProt P82675)
- log2 ratio of iodoacetamide-alkyne labeling: inactive: 0.118

Target: UniProt P78527_C2469
- log2 ratio of iodoacetamide-alkyne labeling: inactive: 0.51

Target: PPP2CA C196 (UniProt P67775)
- log2 ratio of iodoacetamide-alkyne labeling: inactive: 0.411

Target: FOXK1 C665 (UniProt P85037)
- log2 ratio of iodoacetamide-alkyne labeling: inactive: 0.531

Target: UniProt P78527_C1904
- log2 ratio of iodoacetamide-alkyne labeling: inactive: 0.286

Target: UniProt P62873_C25
- log2 ratio of iodoacetamide-alkyne labeling: inactive: 0.0513

Target: UniProt P78527_C1507
- log2 ratio of iodoacetamide-alkyne labeling: inactive: 0.575

Target: GTF2I C903 (UniProt P78347)
- log2 ratio of iodoacetamide-alkyne labeling: inactive: 0.16

Target: XIAP C12 (UniProt P98170)
- log2 ratio of iodoacetamide-alkyne labeling: inactive: 0.418

Target: UniProt P68363_C315
- log2 ratio of iodoacetamide-alkyne labeling: inactive: 0.0941

Target: UniProt P62266_C90
- log2 ratio of iodoacetamide-alkyne labeling: inactive: 0.324

Target: UniProt P62888_C92
- log2 ratio of iodoacetamide-alkyne labeling: inactive: 0.756

Target: TPM4 C154 (UniProt P67936)
- log2 ratio of iodoacetamide-alkyne labeling: inactive: 0.119

Target: PFKP C179 (UniProt Q01813)
- log2 ratio of iodoacetamide-alkyne labeling: inactive: 0.179
